Test results as given in the supplement of paper PMC10849652.
The list shows a part of the results.

Chains of the proteins cited; added tags and fusions are not shown. Lines headed by an entry give the natural chain unless they say otherwise; changes in a name come on top.
UniProt Q9NP31, whole entry, looked up: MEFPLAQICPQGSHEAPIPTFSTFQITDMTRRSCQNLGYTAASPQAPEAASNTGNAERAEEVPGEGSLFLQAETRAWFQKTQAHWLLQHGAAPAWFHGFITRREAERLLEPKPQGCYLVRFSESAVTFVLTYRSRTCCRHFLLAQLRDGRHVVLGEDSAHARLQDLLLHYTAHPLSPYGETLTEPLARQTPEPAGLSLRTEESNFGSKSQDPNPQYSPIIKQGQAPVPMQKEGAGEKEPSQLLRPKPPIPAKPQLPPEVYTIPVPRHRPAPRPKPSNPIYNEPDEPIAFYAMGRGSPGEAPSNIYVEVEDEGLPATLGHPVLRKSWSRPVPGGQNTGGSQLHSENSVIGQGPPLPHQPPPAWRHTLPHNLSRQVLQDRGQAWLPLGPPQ
UniProt P51688: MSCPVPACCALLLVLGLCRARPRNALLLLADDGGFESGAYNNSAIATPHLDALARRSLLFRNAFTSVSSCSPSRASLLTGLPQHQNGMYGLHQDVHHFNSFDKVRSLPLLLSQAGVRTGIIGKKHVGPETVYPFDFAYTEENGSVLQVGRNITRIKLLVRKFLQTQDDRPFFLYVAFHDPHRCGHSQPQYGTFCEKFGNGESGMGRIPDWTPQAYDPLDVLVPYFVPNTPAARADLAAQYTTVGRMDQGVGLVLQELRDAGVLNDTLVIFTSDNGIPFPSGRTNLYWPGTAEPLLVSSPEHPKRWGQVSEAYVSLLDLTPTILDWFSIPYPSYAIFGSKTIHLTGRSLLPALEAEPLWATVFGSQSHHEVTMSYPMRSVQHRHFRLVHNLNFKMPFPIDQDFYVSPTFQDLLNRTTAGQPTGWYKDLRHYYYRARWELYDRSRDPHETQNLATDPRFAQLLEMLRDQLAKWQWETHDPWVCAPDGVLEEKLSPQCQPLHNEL
UniProt Q96LD8: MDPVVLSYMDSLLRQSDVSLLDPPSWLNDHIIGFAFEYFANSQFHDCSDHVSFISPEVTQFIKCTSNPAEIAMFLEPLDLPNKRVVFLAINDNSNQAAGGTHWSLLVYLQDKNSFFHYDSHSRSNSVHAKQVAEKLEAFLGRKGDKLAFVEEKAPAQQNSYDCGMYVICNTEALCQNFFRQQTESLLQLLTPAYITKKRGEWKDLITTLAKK
UniProt Q9Y6P5: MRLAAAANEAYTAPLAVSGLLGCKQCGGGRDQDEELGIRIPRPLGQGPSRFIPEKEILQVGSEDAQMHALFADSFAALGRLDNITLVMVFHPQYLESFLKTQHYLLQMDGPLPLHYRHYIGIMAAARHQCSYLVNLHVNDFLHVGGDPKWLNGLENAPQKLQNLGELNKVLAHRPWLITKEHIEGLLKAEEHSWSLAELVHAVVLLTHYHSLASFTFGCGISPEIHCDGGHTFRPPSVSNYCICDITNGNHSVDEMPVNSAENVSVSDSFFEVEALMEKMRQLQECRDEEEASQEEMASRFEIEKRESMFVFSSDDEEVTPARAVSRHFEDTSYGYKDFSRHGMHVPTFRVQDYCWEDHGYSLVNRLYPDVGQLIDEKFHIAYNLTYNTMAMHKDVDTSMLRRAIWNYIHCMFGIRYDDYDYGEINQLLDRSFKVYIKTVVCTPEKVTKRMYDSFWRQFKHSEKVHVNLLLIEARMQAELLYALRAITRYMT
UniProt P01011: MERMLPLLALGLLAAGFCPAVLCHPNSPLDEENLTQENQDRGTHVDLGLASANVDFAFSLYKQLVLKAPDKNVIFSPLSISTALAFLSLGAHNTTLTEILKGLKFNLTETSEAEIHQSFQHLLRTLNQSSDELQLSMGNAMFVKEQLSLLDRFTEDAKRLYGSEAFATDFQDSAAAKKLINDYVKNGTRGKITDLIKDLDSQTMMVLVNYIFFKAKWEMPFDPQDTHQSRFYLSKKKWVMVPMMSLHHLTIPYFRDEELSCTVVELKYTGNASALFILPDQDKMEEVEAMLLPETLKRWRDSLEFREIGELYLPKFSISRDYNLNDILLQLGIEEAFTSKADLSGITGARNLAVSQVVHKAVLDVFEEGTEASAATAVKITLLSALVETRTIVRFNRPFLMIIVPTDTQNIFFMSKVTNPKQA
UniProt Q9ULL8: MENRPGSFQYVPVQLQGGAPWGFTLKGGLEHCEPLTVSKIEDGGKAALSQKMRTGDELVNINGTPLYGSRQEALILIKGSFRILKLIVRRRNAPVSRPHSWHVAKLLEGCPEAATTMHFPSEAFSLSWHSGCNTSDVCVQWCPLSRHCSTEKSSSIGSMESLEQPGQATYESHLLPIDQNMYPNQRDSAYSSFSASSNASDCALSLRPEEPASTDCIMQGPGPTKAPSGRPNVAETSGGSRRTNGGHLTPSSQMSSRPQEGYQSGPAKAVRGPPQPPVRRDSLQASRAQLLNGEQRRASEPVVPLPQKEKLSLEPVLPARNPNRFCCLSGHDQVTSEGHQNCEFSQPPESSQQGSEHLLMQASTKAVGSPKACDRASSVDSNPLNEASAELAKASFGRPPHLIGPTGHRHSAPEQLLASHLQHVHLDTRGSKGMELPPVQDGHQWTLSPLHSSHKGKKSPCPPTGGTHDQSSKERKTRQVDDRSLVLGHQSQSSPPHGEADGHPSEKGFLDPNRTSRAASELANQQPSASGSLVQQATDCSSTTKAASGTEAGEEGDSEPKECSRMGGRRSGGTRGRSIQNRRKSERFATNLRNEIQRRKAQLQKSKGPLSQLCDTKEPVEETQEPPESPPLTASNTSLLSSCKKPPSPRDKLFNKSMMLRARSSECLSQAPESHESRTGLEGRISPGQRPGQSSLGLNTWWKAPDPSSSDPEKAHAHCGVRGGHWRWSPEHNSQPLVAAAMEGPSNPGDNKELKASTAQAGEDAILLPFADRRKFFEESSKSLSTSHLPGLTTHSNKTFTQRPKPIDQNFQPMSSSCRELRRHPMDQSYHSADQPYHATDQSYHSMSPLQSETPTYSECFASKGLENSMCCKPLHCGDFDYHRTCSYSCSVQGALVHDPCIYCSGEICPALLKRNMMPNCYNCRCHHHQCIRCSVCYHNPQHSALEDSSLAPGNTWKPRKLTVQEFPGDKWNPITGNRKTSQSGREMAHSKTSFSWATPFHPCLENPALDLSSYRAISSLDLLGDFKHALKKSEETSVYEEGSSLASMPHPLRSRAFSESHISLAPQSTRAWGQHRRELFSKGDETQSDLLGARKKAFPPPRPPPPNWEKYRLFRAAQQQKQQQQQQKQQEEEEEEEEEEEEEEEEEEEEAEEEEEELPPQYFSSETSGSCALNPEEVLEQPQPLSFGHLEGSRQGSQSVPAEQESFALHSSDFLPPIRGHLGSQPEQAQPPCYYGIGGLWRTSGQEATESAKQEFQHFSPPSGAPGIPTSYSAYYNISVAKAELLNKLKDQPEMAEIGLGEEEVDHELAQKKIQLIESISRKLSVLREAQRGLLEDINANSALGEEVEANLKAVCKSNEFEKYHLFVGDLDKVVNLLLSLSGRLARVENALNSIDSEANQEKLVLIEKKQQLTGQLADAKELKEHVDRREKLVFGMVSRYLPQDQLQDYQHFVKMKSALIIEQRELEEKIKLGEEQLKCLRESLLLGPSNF
UniProt Q6PI26: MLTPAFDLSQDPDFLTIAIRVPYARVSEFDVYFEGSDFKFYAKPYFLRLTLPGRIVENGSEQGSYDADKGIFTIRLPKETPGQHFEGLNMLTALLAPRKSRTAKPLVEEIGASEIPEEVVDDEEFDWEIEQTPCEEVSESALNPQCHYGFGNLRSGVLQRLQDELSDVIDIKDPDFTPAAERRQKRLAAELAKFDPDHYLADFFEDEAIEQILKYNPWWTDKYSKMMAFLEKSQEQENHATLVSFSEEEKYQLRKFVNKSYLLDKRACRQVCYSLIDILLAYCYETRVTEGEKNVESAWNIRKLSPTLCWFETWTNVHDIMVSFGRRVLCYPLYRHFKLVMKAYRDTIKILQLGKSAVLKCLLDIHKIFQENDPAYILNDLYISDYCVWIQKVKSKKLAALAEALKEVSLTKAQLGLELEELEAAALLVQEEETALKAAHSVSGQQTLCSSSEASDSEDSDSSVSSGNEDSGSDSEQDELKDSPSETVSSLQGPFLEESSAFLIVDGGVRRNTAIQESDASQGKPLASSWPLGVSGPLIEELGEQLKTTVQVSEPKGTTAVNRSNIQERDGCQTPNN
UniProt Q8WVK7: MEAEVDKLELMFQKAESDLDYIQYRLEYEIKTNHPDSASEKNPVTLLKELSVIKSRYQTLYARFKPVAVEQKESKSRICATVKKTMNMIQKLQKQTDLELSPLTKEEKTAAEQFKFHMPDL
UniProt Q9H0K1: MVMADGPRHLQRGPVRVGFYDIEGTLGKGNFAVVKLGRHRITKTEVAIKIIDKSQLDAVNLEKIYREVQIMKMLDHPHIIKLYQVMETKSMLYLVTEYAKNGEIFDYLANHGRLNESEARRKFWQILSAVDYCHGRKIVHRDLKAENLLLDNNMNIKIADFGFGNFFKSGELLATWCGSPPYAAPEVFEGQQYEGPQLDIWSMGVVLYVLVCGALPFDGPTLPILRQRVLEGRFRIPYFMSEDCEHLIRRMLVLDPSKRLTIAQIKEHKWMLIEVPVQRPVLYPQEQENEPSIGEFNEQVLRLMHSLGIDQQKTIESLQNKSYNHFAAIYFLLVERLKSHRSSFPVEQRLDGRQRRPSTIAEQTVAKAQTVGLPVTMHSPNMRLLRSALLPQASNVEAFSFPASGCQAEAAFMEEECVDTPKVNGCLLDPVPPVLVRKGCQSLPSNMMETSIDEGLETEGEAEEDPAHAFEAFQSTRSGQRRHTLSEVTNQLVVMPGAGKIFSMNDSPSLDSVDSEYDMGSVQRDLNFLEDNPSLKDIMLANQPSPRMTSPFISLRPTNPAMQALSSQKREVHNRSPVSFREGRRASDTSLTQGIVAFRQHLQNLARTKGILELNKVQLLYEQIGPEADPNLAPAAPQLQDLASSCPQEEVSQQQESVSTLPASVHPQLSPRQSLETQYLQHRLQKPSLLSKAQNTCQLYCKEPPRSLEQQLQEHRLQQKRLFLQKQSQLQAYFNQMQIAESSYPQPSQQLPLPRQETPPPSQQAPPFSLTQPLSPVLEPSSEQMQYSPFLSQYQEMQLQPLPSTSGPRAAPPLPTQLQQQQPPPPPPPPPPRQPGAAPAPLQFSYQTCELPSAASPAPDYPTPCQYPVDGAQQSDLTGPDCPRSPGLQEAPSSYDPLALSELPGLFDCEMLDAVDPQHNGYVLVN
UniProt O75635: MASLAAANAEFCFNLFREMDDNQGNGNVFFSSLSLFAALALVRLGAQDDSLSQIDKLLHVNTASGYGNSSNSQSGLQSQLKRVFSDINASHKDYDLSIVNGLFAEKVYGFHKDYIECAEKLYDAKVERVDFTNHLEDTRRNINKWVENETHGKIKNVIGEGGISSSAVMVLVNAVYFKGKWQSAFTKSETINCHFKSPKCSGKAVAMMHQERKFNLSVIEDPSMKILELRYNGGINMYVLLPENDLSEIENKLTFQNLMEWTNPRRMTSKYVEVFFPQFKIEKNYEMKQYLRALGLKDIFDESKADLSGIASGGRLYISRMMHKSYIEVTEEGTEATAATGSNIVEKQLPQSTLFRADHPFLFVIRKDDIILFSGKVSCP
UniProt P04279: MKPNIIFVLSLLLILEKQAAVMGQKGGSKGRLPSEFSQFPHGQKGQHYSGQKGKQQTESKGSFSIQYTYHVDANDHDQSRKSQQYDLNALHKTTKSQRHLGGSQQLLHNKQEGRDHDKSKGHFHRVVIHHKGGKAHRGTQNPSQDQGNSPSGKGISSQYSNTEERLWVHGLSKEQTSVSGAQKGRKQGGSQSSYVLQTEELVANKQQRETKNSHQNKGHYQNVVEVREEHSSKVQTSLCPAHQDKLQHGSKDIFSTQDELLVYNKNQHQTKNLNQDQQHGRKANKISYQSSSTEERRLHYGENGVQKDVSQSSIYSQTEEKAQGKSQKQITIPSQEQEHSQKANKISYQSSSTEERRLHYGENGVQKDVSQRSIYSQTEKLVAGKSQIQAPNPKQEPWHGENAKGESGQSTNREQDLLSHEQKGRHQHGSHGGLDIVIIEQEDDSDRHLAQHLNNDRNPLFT
UniProt Q8WWX9, whole entry, looked up: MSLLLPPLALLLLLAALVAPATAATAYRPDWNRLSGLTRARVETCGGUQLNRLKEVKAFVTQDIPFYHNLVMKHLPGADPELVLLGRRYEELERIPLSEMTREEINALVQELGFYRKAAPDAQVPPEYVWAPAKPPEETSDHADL
UniProt O15304: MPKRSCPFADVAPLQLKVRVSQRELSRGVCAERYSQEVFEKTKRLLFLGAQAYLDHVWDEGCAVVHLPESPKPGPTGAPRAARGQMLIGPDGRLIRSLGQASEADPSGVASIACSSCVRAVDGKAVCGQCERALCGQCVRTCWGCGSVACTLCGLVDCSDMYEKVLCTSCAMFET
UniProt P55822: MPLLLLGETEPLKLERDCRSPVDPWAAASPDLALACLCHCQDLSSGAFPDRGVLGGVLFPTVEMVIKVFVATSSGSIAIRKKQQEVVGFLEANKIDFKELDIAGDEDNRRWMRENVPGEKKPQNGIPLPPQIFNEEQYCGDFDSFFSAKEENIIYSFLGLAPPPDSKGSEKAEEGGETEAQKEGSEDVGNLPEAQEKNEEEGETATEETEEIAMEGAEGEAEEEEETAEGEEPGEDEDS

How the values were obtained:
Experiment in all cases: log2 fold change, soluble protein after heating vs DMSO (PISA); higher = thermal stabilisation; K562 cells, 10 uM, 30 min; active = over 0.2 and 3.5 SD of the protein, either way, in both replicates (recomputed)
[1] = compound: CC1=NC(=CC=C1)C2=C(N=C(N2)C(C)(C)C)C3=CC4=NC=CN=C4C=C3
How it was run: (§1)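 Aliquots of K562 cells (2×10^6 cells/mL) treated with 10 μM compound for 30 min were heated for 3 min over 48°C-58°C. After pooling and extraction in PBS with 0.5% NP-40 at 4°C, soluble protein from a 21,000xg, 90 min spin was quantified by TMTpro 16plex LC-MS/MS with channel sums equalised. Thermal stability is expressed against control samples, from duplicates, as a log2 fold change.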

Nexturastat A = compound: CCCCN(Cc1ccc(C(=O)NO)cc1)C(=O)Nc1ccccc1 [Nexturastat A]
How it was run: as §1

[2] = compound: CCCc1cc(C)[nH]c(=O)c1CNC(=O)c1cc(-c2ccnc(N3CCN(C)CC3)c2)cc2c1cnn2C(C)C
How it was run: as §1

givinostat = compound: CCN(CC)Cc1ccc2cc(COC(=O)Nc3ccc(C(=O)NO)cc3)ccc2c1 [givinostat]
How it was run: as §1

[3] = compound: CC[C@H](C)N1C=C(C2=C(C=C(C=C21)C3=CN=C(C=C3)N4CCNCC4)C(=O)NCC5=C(C=C(NC5=O)C)C)C
How it was run: as §1

epoxomicin = compound: CC[C@H](C)[C@@H](C(=O)N[C@@H]([C@@H](C)O)C(=O)N[C@@H](CC(C)C)C(=O)[C@]1(CO1)C)NC(=O)[C@H]([C@@H](C)CC)N(C)C(=O)C [epoxomicin]
How it was run: as §1

[4] = compound: CCn1c(C(=O)N(C2CC2)C2CC2)cc2c3c(ncn3C)c(Nc3cc(C)n(C)n3)nc21
How it was run: as §1

[5] = compound: CCn1cc(-c2ccnc3[nH]c(-c4cccc(CN(C)C)c4)cc23)c(-c2ccc(NC(=O)N(C)C)cc2)n1
How it was run: as §1

[6] = compound: CN1CCC(CNc2ccc3ncc(-c4cccc(OC(F)(F)F)c4)n3n2)CC1
How it was run: as §1

[7] = compound: CC1=C(C=C(C=C1)NC(=O)C2=CC(=CC=C2)N(C)C)NC(=O)C3=CC=C(C=C3)O
How it was run: as §1

barasertib = compound: CCN(CCCOc1ccc2c(Nc3cc(CC(=O)Nc4cccc(F)c4)[nH]n3)ncnc2c1)CCOP(=O)(O)O [barasertib]
How it was run: as §1

[8] = compound: CC[C@@H]1C(=O)N(C)c2cnc(Nc3ccc(C(=O)NC4CCN(C)CC4)cc3OC)nc2N1C1CCCC1
How it was run: as §1

rosiglitazone = compound: CN(CCOC1=CC=C(C=C1)C[C@H]2C(=O)NC(=O)S2)C3=CC=CC=N3 (racemic) [rosiglitazone]
How it was run: as §1

[9] = compound: CN1C2=C(C3=C1C(=O)N(N=C3)CC4=CC(=CC=C4)N)SC(=C2)S(=O)C
How it was run: as §1

[10] = compound: CC1=CC=C(C=C1)SC2=C3C=C(SC3=CN=C2)C(=O)N
How it was run: as §1

[11] = compound: CCCS(=O)(=O)Nc1ccc(F)c(C(=O)c2c[nH]c3ncc(Cl)cc23)c1F
How it was run: as §1

volasertib = compound: CC[C@@H]1C(=O)N(C)c2cnc(Nc3ccc(C(=O)N[C@H]4CC[C@H](N5CCN(CC6CC6)CC5)CC4)cc3OC)nc2N1C(C)C [volasertib]
How it was run: as §1

vemurafenib = compound: CCCS(=O)(=O)Nc1ccc(F)c(C(=O)c2c[nH]c3ncc(-c4ccc(Cl)cc4)cc23)c1F [vemurafenib]
How it was run: as §1

[12] = compound: CN(C)CC(=O)Nc1ccc2[nH]c(=O)c3ccccc3c2c1
How it was run: as §1

Measured: log2 fold change

SERPIND1 (UniProt P05546)
inactive: [1] 0.029 | Nexturastat A 0.378 | [2] -0.296 | givinostat -0.197 | [3] 0.161 | epoxomicin -0.482 | [4] 0.052 | [5] 0.143 | [6] 0.306

SIX5 (UniProt Q8N196)
inactive: [7] -0.039 | [1] -0.047 | [2] 0.021 | barasertib -0.107 | [8] -0.055 | [5] 0.034 | rosiglitazone 0.077 | [9] -0.06 | [6] -0.037

SH2D2A isoform 2 (UniProt Q9NP31)
inactive: [10] 0.104 | [1] -0.273 | [11] -0.098 | [2] -0.071 | givinostat 0.17 | [8] 0.025 | volasertib -0.033 | [3] 0.063 | [4] -0.007 | [5] -0.008 | [9] 0.127 | [6] 0.175

SGSH (UniProt P51688)
inactive: givinostat -0.478 | [3] 0.28 | [4] -0.129

SH2B1 (UniProt Q9NRF2)
inactive: vemurafenib -0.023 | [12] -0.009

SERAC1 (UniProt Q96JX3)
inactive: [2] -0.015 | givinostat 0.153 | [8] -0.033 | [3] 0.002 | [4] -0.147

SENP8 (UniProt Q96LD8)
inactive: [1] 0.279 | [3] 0.056

SEMA7A (UniProt O75326)
inactive: [7] -0.01 | Nexturastat A 0.154 | vemurafenib -0.008 | epoxomicin 0.164 | [5] -0.101 | [12] 0.023 | [6] -0.234

SIGIRR (UniProt H0YDR5)
inactive: [1] 0.011 | givinostat -0.14 | [8] 0.111 | [4] -0.095 | [5] -0.022 | [6] -0.136

SH2D3A (UniProt Q9BRG2)
inactive: [7] 0.051 | [1] 0.103 | vemurafenib -0.254 | givinostat 0.14 | [3] 0.036 | [4] -0.196 | [12] -0.074

SIMC1 (UniProt Q8NDZ2)
inactive: givinostat 0.401 | [4] -0.06

SESN1 isoform 2 (UniProt Q9Y6P5)
inactive: [1] 0.105

SERPINA3 (UniProt P01011)
inactive: Nexturastat A 0.295 | [8] 0.001 | epoxomicin -0.364

SELENOI (UniProt Q9C0D9)
inactive: [7] 0.016 | [1] 0.243

SECISBP2 (UniProt Q96T21)
inactive: [7] 0.231 | [2] -0.35 | [3] -0.443 | [5] 0.116 | [6] -0.195

SHROOM4 (UniProt Q9ULL8)
inactive: [10] -0.653 | vemurafenib -0.174 | [11] -0.188 | [2] 0.101 | volasertib 0.05 | [5] 0.077 | [12] -0.148 | [9] 0.17 | [6] 0.415

SHQ1 (UniProt Q6PI26)
inactive: vemurafenib 0.096 | [12] 0.061 | [9] 0.106

SIRT3 (UniProt Q9NTG7)
inactive: [7] -0.202 | [1] 0.04 | vemurafenib 0.02 | [2] 0.078 | givinostat -0.044 | [8] -0.002 | [4] -0.024 | [5] -0.102 | [12] 0.025 | [9] -0.089 | [6] 0.059

SERPINB6, A0A2R8Y7E5
inactive: [1] 0.021 | Nexturastat A 0.073 | vemurafenib 0.103 | [2] 0.074 | barasertib 0.384 | epoxomicin 0.037 | [12] 0.055 | rosiglitazone -0.021

2 successive entries out of the list so far:
SERPIND1 (UniProt P05546)
inactive: [1] 0.029 | Nexturastat A 0.378 | [2] -0.296 | givinostat -0.197 | [3] 0.161 | epoxomicin -0.482 | [4] 0.052 | [5] 0.143 | [6] 0.306

SIX5 (UniProt Q8N196)
inactive: [7] -0.039 | [1] -0.047 | [2] 0.021 | barasertib -0.107 | [8] -0.055 | [5] 0.034 | rosiglitazone 0.077 | [9] -0.06 | [6] -0.037

(further entries)

SKA2 (UniProt Q8WVK7)
inactive: [7] 0.088 | [5] 0.053 | [6] 0.082

SEPTIN2 (UniProt B5MCX3)
inactive: [7] 0.045 | vemurafenib -0.106 | [8] 0.094 | [12] -0.141

SIK2 (UniProt Q9H0K1)
inactive: [7] 0.372 | [10] 0.01 | [11] -0.021 | [2] -0.262 | givinostat 0.521 | barasertib 0.028 | [8] 0.47 | volasertib -0.117 | [4] -0.151 | rosiglitazone -0.192

SERPINB7 (UniProt O75635)
inactive: vemurafenib -0.01 | [2] -0.045 | barasertib 0.162 | [8] 0.073 | [5] -0.028 | [12] 0.031 | rosiglitazone 0.158 | [9] 0.501 | [6] -0.012

SEMG1 (UniProt P04279)
inactive: [2] -0.089

SELENOM (UniProt Q8WWX9)
inactive: Nexturastat A 0.018 | givinostat -0.084 | [3] 0.166 | epoxomicin 0.056 | [4] 0.011

SETD2 (UniProt Q9BYW2)
inactive: [5] -0.478 | [6] 0.175

SFXN1 (UniProt D6RDG7)
inactive: [2] -0.078

SHARPIN (UniProt Q9H0F6)
inactive: [3] -0.062

SIVA1 (UniProt O15304)
inactive: Nexturastat A 0.053 | epoxomicin 0.269

SH3BGR (UniProt P55822)
inactive: [10] 0.058 | Nexturastat A 0.023 | [11] 0.036 | [2] 0.036 | givinostat 0.041 | barasertib 0.078 | [8] -0.102 | volasertib -0.068 | [3] 0.167 | epoxomicin -0.369 | [4] -0.014 | [5] -0.05 | rosiglitazone 0.118 | [9] 0.038 | [6] 0.142
